Values quoted from earlier work in patent US20250090522A1 (priority 2021, published 2025).
At least one compound was matched to its structure with a doubt left.

What was measured:
[1] = given orally/nasogastric tube; in one to three hours
[2] = test system: cosinophil adhesion to VCAM-1; settings: under flow conditions

## CC(C)(O)c1ccccc1CC[C@@H](SCC1(CC(=O)O)CC1)c1cccc(/C=C/c2ccc3ccc(Cl)cc3n2)c1 [Montelukast]
[1]
  improves FEV1: FEV1: 15% in one to three hours
[2]
  resting and GM-CSF-stimulated eosinophil adhesion to VCAM-1: inhibited
